Cell number change and AC50 data for 60 compounds are collected here from PubChem BioAssay AID2685 (National Center for Advancing Translational Sciences (NCATS), 2010).

Some of the results follow. Further columns of the screen follow, without active or inactive calls. Compounds called inactive in the main read-out are mostly missing here. The note in brackets gives the kind of curve behind each potency; many fits are weak.

This test is described as follows: qHTS Assay for Lipid Storage Modulators in Drosophila S3 Cells.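 As to Cell number change: cells counted by Cell Tracker Red CMTPX staining in the red channel.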 The settings on record: BODIPY lipid droplet fluorescence, 18-24 h; for cell number change: measured here: cell count max response, cells fed with added oleic acid. Summed up:
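Laser-scanning cytometry quantifies lipid droplet accumulation (500–530 nm total intensity; droplet/cell object ratio) in oleic acid-fed (400 uM added) Drosophila S3 cells treated with a concentration series. 20 uM Triacsin C defined 100% inhibition.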
A general note: qHTS replaces the single test concentration by a dilution series.

Where [1] appears, read: measured here: lipid fluorescence (Fed channel) AC50, cells fed with added oleic acid.
Setting [2] is: measured here: cell number channel AC50, cells fed with added oleic acid.

Consider `CCN1CCN(C(=O)c2ccc3c(c2)c(C)c(C)n3Cc2ccccc2)CC1`, for which the cell number change is -0.645%. For the same compound, under setting [1], the AC50 – broadly, the concentration giving half of the maximal activity seen – is 0.82 µM [falling, single point].
On to `Cc1cc(C)c2c(n1)nn1c(N3CCN(c4ccccn4)CC3)cc(C)nc21`, for which the cell number change is 7.94%. In addition, the AC50 under setting [1] was 4.11 µM [rising, partial curve].
Turning to `O=C(CSc1cccc[n+]1[O-])N1CCCc2ccccc21`, the cell number change was determined as 6.84%. In addition, under setting [2], the AC50 is 0.103 µM [rising, full curve, poor fit]. For the same compound, under setting [1], the AC50 was 6.51 µM [rising, partial curve, poor fit].
Consider `NNC(=O)C(=O)Nc1ccc(Cl)c(Cl)c1`, for which the cell number change is 40.6%. Besides, the AC50 under setting [2] is 2.31 µM [rising, full curve, poor fit]. Also, the AC50 under setting [1] is 0.517 µM [rising, full curve, poor fit].
On to `Cc1nnc(NC(=O)CCNC(=O)c2ccccc2Cl)s1`, for which the cell number change is 14.4%. Also, the AC50 under setting [2] was 0.0206 µM [rising, partial curve, poor fit]. Moreover, the half-maximal activity concentration (AC50) under setting [1] was 0.00461 µM [rising, full curve, poor fit].
With `O=C(CCCN1C(=O)c2cccnc2C1=O)Nc1ccccc1F`, the cell number change was -37%. For the same compound, under setting [2], the AC50 is 0.411 µM [falling, full curve]. For the same compound, the AC50 under setting [1] was 0.517 µM [falling, full curve].
`Fc1cccc2sc(Nc3nc4cc5c(cc4s3)OCO5)nc12`: the cell number change was -5.94%.
On to `CCOc1ccc(CCNC(=O)CCC(=O)N2CCOc3ccc(C)cc32)cc1OCC`, for which the cell number change was -22.5%. Further, under setting [1], the AC50 is 14.6 µM [falling, partial curve].
On to `Cc1c(CC(=O)O)c(=O)oc2cc3occ(-c4ccc(F)cc4)c3cc12`, for which the cell number change amounted to 1.22%. Also, the AC50 under setting [1] is 0.651 µM [falling, single point].
In the case of `Cc1cccc(N(C(=O)CNC(=O)c2cccs2)C(C(=O)NC2CCCC2)c2ccncc2)c1` (stereo not given), the cell number change is -9.21%.
As to `CN(C)CCOc1ncnc2c1oc1ccccc12`, the cell number change was -55.8%. Also, the AC50 under setting [2] was 3.66 µM [falling, full curve]. Moreover, the AC50 under setting [1] was 3.66 µM [falling, full curve].
Take `CCC(CC)C(=O)NCCCN1CCOCC1`: the cell number change was -19.5%. For the same compound, under setting [1], the AC50 was 0.146 µM [falling, full curve].
For the compound `Fc1cccc(F)c1CN1CCN(c2ncccn2)CC1`, the cell number change was -4.99%. Further, the AC50 under setting [1] was 0.206 µM [falling, full curve, poor fit].
Take `C=CCn1c(SCC(=O)N(CC)CC)nc(O)cc1=O`: the cell number change was -10.3%. Moreover, the AC50 under setting [2] was 0.517 µM [falling, full curve, poor fit]. Besides, the AC50 under setting [1] was 29.1 µM [falling, single point].
As for `CCOC(=O)/C(=C/C=C/c1ccccc1)NC(=O)c1ccccc1`, the cell number change amounted to 34.3%. For the same compound, the concentration at half-maximal activity (AC50) under setting [2] was 23.1 µM [rising, single point].
Take `CC(C)(CNC(=O)c1ccc(NS(=O)(=O)c2ccc(F)cc2)cc1)N1CCOCC1`: the cell number change is -10.5%. Under setting [2], the AC50 is 0.651 µM [falling, single point]. Also, under setting [1], the AC50 is 7.31 µM [falling, partial curve].
For the compound `CCc1ccc(S(=O)(=O)N2CC(=O)Nc3ccccc32)cc1`, the cell number change stood at 6.83%. Further, under setting [2], the AC50 was 0.651 µM [falling, single point].
For the compound `Cc1cc(Nc2ccc(F)cc2)nc(N)n1`, the cell number change was -9.62%. In addition, the AC50 under setting [1] is 6.51 µM [rising, single point].
Turning to `c1ccc(CCn2nnnc2C(c2cccnc2)N2CCOCC2)cc1` (stereo not given), the cell number change was -2.08%. Also, the AC50 under setting [1] is 29.1 µM [falling, partial curve, poor fit].
In the case of `c1ccc2c(c1)CC/C2=N/Nc1nc2ccccc2[nH]1`, the cell number change was -54.1%. Under setting [2], the AC50 was 18.4 µM [falling, single point]. For the same compound, under setting [1], the AC50 was 8.2 µM [falling, single point].
As for `Nc1nc2n(c1C(=O)c1ccccc1)CCC2`, the cell number change amounted to 1.21%. Further, the AC50 under setting [1] is 0.116 µM [falling, full curve, poor fit].
`O=C(/C=C\Nc1ccc2c(c1)OCO2)c1ccccn1`: the half-maximal activity concentration (AC50) under setting [1] was 0.58 µM [rising, single point].
As to `COc1cc(CC(=O)N(C)CC(=O)Nc2cc(C)ccc2C)cc(OC)c1OC`, the cell number change is 9.17%. Moreover, the AC50 under setting [1] was 0.116 µM [falling, single point].
For the compound `NC(=O)c1ccc(/C=N/O)nc1`, the cell number change was 126%. Further, the AC50 under setting [2] was 20.6 µM [rising, single point]. Under setting [1], the AC50 was 6.51 µM [falling, single point].
Regarding `O=C1NC2=C(C(=O)CCC2)C(c2cccc([N+](=O)[O-])c2)N1` (stereo not given), the cell number change is -4.91%.
`Cc1ccc(C)c(OCC(=O)NCC(C)C)c1C`: the cell number change worked out at 32.6%. Under setting [2], the AC50 is 4.61 µM [rising, partial curve]. Moreover, the half-maximal activity concentration (AC50) under setting [1] was 5.17 µM [rising, partial curve].
As to `Cc1ccc2nc(SC(C)C(=O)N3CC(C)OC(C)C3)[nH]c2c1` (stereo not given), the cell number change is 56.6%.
`CCOC(=O)N1CCN(C(=O)c2ccc3c(c2)N(Cc2cccc(Cl)c2)C(=O)c2ccccc2S3=O)CC1` (stereo not given): the cell number change was -17.5%. Further, the AC50 under setting [1] is 29.1 µM [falling, partial curve].
For `COc1ccc(NC(=O)Cc2ccc(C)cc2)cc1S(=O)(=O)N1CCCCC1`, the cell number change is -3.63%. Also, the AC50 under setting [1] is 6.51 µM [rising, partial curve, poor fit].
As to `COC(=O)Nc1nncs1`, the cell number change is -33.8%. In addition, the AC50 under setting [2] was 0.82 µM [falling, full curve, poor fit].
With `Cc1cc(C(=O)OCC(=O)NC2CCS(=O)(=O)C2)c(C)n1-c1ccccc1` (stereo not given), the cell number change was -15.9%.
In the case of `CN(C)S(=O)(=O)N1CCN(CC(O)COc2ccc3cc(Br)ccc3c2)CC1` (stereo not given), the cell number change is -37%. The AC50 under setting [2] is 29.1 µM [falling, single point]. Besides, the AC50 under setting [1] is 32.6 µM [falling, single point].
`COc1cccc(OCC(=O)NNC(=O)C(=O)Nc2ccc(OC)cc2OC)c1`: the cell number change worked out at 1.39%.
Consider `COCc1[nH]nc2c1C(c1sccc1C)C(C#N)=C(N)O2` (stereo not given), for which the AC50 under setting [1] was 29.1 µM [falling, single point].
`Cc1cnc(C(=O)OCC(=O)Nc2ccc(Br)c(C)c2)cn1`: the cell number change was -9.91%. For the same compound, under setting [2], the AC50 was 0.00461 µM [falling, full curve, poor fit]. Also, the AC50 under setting [1] is 0.00461 µM [falling, full curve, poor fit].
As for `O=C(N/N=C/c1cn(-c2ccccc2)nc1-c1cccs1)c1ccncc1`, the cell number change is -1.02%. For the same compound, the AC50 under setting [1] is 29.1 µM [rising, single point].
In the case of `COc1ccc(C(=O)/C=C/c2cccnc2)c(OC)c1`, the cell number change was -13.1%. For the same compound, the AC50 under setting [1] is 29.1 µM [falling, single point].
As for `COc1cccc(OC)c1C(=O)Nc1ccc2c(c1)OCCO2`, the cell number change is -1.83%.
`CCOC(=O)CSc1nc(-c2ccc3c(c2)OCO3)ccc1C#N`: the cell number change was -12.8%. For the same compound, the AC50 under setting [1] is 29.1 µM [falling, single point].
In the case of `CCOC(=O)Cc1nn(Cc2ccc(Cl)cc2)c(=O)c2ccccc12`, the cell number change was 4.78%. In addition, the AC50 under setting [2] was 3.26 µM [rising, single point]. Besides, the AC50 under setting [1] is 4.61 µM [rising, single point].
For the compound `COCCOC(=O)c1c(C)oc2ccc(OCc3ccccc3)cc12`, the cell number change came to 28.8%. The AC50 under setting [1] was 3.66 µM [rising, single point].
For the compound `CCN(c1ccc(OC)cc1)S(=O)(=O)c1nnc(NC(=O)c2ccco2)s1`, the AC50 under setting [1] is 5.8 µM [rising, single point].
On to `COc1ccccc1CN1CC(C(=O)NCCc2ccccc2Cl)CCC1=O` (stereo not given), for which the cell number change was 59.3%. Moreover, the AC50 under setting [1] is 6.51 µM [rising, partial curve].
`Cc1cc(/C=C2/NC(=O)NC2=O)c(C)n1-c1ccccn1`: the cell number change amounted to 4.97%. Further, the AC50 under setting [1] was 7.31 µM [falling, single point].
Consider `O=C(COC(=O)[C@@H]1CC(O)CN1S(=O)(=O)c1ccccc1[N+](=O)[O-])Nc1ccc2ccccc2c1` (stereo not given in full), for which, under setting [1], the AC50 was 0.92 µM [rising, full curve, poor fit].
Take `Cc1ccc(NC(=O)N2CCCC2C(=O)Nc2c(C)cc(C)cc2C)cc1` (stereo not given): the cell number change stood at 11.5%. For the same compound, the AC50 under setting [1] is 29.1 µM [falling, single point].
For `COc1ccccc1N(C)S(=O)(=O)c1ccc(C(=O)Nc2ccc(N3CCOCC3)cc2)cc1`, the cell number change is -107%. The AC50 under setting [2] is 29.1 µM [falling, single point].
Take `CCCCOc1ncnc2c1[nH]c1ccc(OC)cc12`: the cell number change is 2.76%. Also, the AC50 under setting [1] is 0.103 µM [rising, full curve, poor fit].
Regarding `COc1ccccc1N1CCN(C2CCCN(C(=O)c3cc(C4CC4)on3)C2)CC1` (stereo not given), the cell number change turned out to be 21.4%. In addition, the AC50 under setting [1] was 29.1 µM [rising, single point].
On to `COc1ccc(C(=O)Nc2ccc3nc4n(c(=O)c3c2)CCCC4)cc1[N+](=O)[O-]`, for which the cell number change is -1.11%. Under setting [1], the AC50 was 4.11 µM [rising, partial curve, poor fit].
Turning to `N=c1c2c(ncn1Cc1ccco1)Oc1c(ccc3ccccc13)C2c1ccccc1` (stereo not given), the cell number change was -10.5%.
As to `CCN(CC)S(=O)(=O)c1cccc(C(=O)N[C@H](C(=O)O)C(C)C)c1`, the cell number change was 2.38%. The AC50 under setting [2] is 0.116 µM [rising, full curve, poor fit]. In addition, under setting [1], the AC50 is 18.4 µM [rising, single point].
`O=C(Cc1ccccc1F)Nc1cccc2cccnc12`: the cell number change worked out at 10.6%. The AC50 under setting [2] is 4.11 µM [rising, single point].
On to `CCOC(=O)Cn1c(=O)oc2cc(S(=O)(=O)NC(C)c3ccccc3)ccc21` (stereo not given), for which the cell number change amounted to 24.1%. Moreover, the AC50 under setting [1] is 0.00517 µM [falling, full curve, poor fit].
In the case of `CN1CCN(C(=O)c2cc([N+](=O)[O-])ccc2Cl)CC1`, the cell number change was determined as 24.7%.
Regarding `CCCC(O)(CCC)C(=O)NNc1ccc(C)cc1`, the cell number change was found to be 18%. Further, under setting [1], the AC50 is 0.259 µM [rising, full curve].
For the compound `O=C(NCc1cccnc1)c1ccccc1-c1nc(-c2ccccc2)no1`, the cell number change came out at 20.9%. The AC50 under setting [1] was 6.51 µM [rising, partial curve].
For the compound `CCCC(=O)NNc1cc(=O)c2c(=O)n(C)c(=O)n(C)c2[nH]1`, the cell number change was found to be 8.79%.
Consider `CC(C)NC(=O)/C(=C/c1cn(-c2ccccc2)nc1-c1cccc([N+](=O)[O-])c1)NC(=O)c1ccccc1`, for which the cell number change was -2.73%. Besides, the AC50 under setting [1] was 9.2 µM [rising, single point].
Take `CCCCOc1ccc(OCCSc2nc3ccccc3n2CC(=O)O)cc1`: the cell number change came out at 10.8%. In addition, the AC50 under setting [1] was 8.2 µM [rising, partial curve].
